The target of assay [1] is FnIII-3,4 region of integrin β4 (residues 1457–1666), wild type (human) (UniProt P16144). In words: condition: 1.5 to 48.6 mg ml^-1 (data extrapolated to infinite dilution); SAXS; wild-type FnIII-3,4 in solution at 1.5, 3.0, 6.1, 12.2, 24.3 and 48.6 mg ml^-1, 283 K, 20 mM sodium phosphate pH 7.5, 150 mM NaCl, 5% glycerol, 3 mM DTT; data extrapolated to infinite dilution; mass from the excluded volume of DAMMIF models against the mass from the sequence; both purified.

The target in assay [2] is FnIII-3,4 mutant R1504C/C1608/R1630C, labelled with MTSL (human) (UniProt P16144). Nature of the assay: SAXS; MTSL-labelled FnIII-3,4 mutants in solution, 20 mM sodium phosphate pH 7.5, 150 mM NaCl, 5% glycerol; measured and processed as the wild type, detector distance 3.1 m; both purified.
The target in assay [3] is FnIII-3,4 mutant T1472C/C1608/R1630C, labelled with MTSL (human) (UniProt P16144). The description is as above.
The target of assay [4] is FnIII-3,4 mutant T1472C/S1590C/C1608, labelled with MTSL (human) (UniProt P16144). The assay is described as above.
Assay [5] has as its target FnIII-3,4 mutant R1504C/C1608/S1626C, labelled with MTSL (human) (UniProt P16144). The assay is described as above.
The target in assay [6] is FnIII-3,4 mutant L1497C/C1608/S1626C, labelled with MTSL (human) (UniProt P16144). The assay is described as above.
The target in assay [7] is FnIII-3,4 mutant L1497C/N1598C/C1608, labelled with MTSL (human) (UniProt P16144). The description is as above.
For assay [8], the target named is FnIII-3,4 mutant T1472C/C1608/S1626C, labelled with MTSL (human) (UniProt P16144). The description is as above.
Assay [9] concerns the target FnIII-3,4 mutant R1504C/N1598C/C1608, labelled with MTSL (human) (UniProt P16144). The assay is described as above.

No constants are given. Whether binding was seen depends on the method and setting.

B1: FnIII-3,4 region of integrin β4 (residues 1457–1666), wild type (domain or fragment, UniProt P16144-2 1457-1666)
chain: GSHMVPDTPTRLVFSALGPTSLRVSWQEPRCERPLQGYSVEYQLLNGGELHRLNIPNPAQTSVVVEDLLPNHSYVFRVRAQSQEGWGREREGVITIESQVHPQSPLCPLPGSAFTLSTPSAPGPLVFTALSPDSLQLSWERPRRPNGDIVGYLVTCEMAQGGGPATAFRVDGDSPESRLTVPGLSENVPYKFKVQARTTEGFGPEREGIITIES
Regarding B1, the binding result in assay [1] was “no binding”.

B2: FnIII-3,4 mutant R1504C/C1608/R1630C, labelled with MTSL (domain or fragment, UniProt P16144-2 1457-1666)
chain: GSHMVPDTPTRLVFSALGPTSLRVSWQEPRSERPLQGYSVEYQLLNGGELHCLNIPNPAQTSVVVEDLLPNHSYVFRVRAQSQEGWGREREGVITIESQVHPQSPLAPLPGSAFTLSTPSAPGPLVFTALSPDSLQLSWERPRRPNGDIVGYLVTCEMAQGGGPATAFRVDGDSPESCLTVPGLSENVPYKFKVQARTTEGFGPEREGIITIES
modifications: MTSL nitroxide spin label on Cys 1504, 1608 and 1630
As for B2, in [2], the binding entry was “no binding”.

B3: FnIII-3,4 mutant T1472C/C1608/R1630C, labelled with MTSL (domain or fragment, UniProt P16144-2 1457-1666)
chain: GSHMVPDTPTRLVFSALGPCSLRVSWQEPRSERPLQGYSVEYQLLNGGELHRLNIPNPAQTSVVVEDLLPNHSYVFRVRAQSQEGWGREREGVITIESQVHPQSPLAPLPGSAFTLSTPSAPGPLVFTALSPDSLQLSWERPRRPNGDIVGYLVTCEMAQGGGPATAFRVDGDSPESCLTVPGLSENVPYKFKVQARTTEGFGPEREGIITIES
modifications: MTSL nitroxide spin label on Cys 1472, 1608 and 1630
In the case of B3, the binding entry in assay [3] was “no binding”.

B4: FnIII-3,4 mutant T1472C/S1590C/C1608, labelled with MTSL (domain or fragment, UniProt P16144-2 1457-1666)
chain: GSHMVPDTPTRLVFSALGPCSLRVSWQEPRSERPLQGYSVEYQLLNGGELHRLNIPNPAQTSVVVEDLLPNHSYVFRVRAQSQEGWGREREGVITIESQVHPQSPLAPLPGSAFTLSTPSAPGPLVFTALSPDSLQLCWERPRRPNGDIVGYLVTCEMAQGGGPATAFRVDGDSPESRLTVPGLSENVPYKFKVQARTTEGFGPEREGIITIES
modifications: MTSL nitroxide spin label on Cys 1472, 1590 and 1608
For B4, the binding entry in [4] was “no binding”.

B5: FnIII-3,4 mutant R1504C/C1608/S1626C, labelled with MTSL (domain or fragment, UniProt P16144-2 1457-1666)
chain: GSHMVPDTPTRLVFSALGPTSLRVSWQEPRSERPLQGYSVEYQLLNGGELHCLNIPNPAQTSVVVEDLLPNHSYVFRVRAQSQEGWGREREGVITIESQVHPQSPLAPLPGSAFTLSTPSAPGPLVFTALSPDSLQLSWERPRRPNGDIVGYLVTCEMAQGGGPATAFRVDGDCPESRLTVPGLSENVPYKFKVQARTTEGFGPEREGIITIES
modifications: MTSL nitroxide spin label on Cys 1504, 1608 and 1626
For B5, in assay [5], the binding result is “no binding”.

B6: FnIII-3,4 mutant L1497C/C1608/S1626C, labelled with MTSL (domain or fragment, UniProt P16144-2 1457-1666)
chain: GSHMVPDTPTRLVFSALGPTSLRVSWQEPRSERPLQGYSVEYQLCNGGELHRLNIPNPAQTSVVVEDLLPNHSYVFRVRAQSQEGWGREREGVITIESQVHPQSPLAPLPGSAFTLSTPSAPGPLVFTALSPDSLQLSWERPRRPNGDIVGYLVTCEMAQGGGPATAFRVDGDCPESRLTVPGLSENVPYKFKVQARTTEGFGPEREGIITIES
modifications: MTSL nitroxide spin label on Cys 1497, 1608 and 1626
In the case of B6, the binding entry in assay [6] was “no binding”.

B7: FnIII-3,4 mutant L1497C/N1598C/C1608, labelled with MTSL (domain or fragment, UniProt P16144-2 1457-1666)
chain: GSHMVPDTPTRLVFSALGPTSLRVSWQEPRSERPLQGYSVEYQLCNGGELHRLNIPNPAQTSVVVEDLLPNHSYVFRVRAQSQEGWGREREGVITIESQVHPQSPLAPLPGSAFTLSTPSAPGPLVFTALSPDSLQLSWERPRRPCGDIVGYLVTCEMAQGGGPATAFRVDGDSPESRLTVPGLSENVPYKFKVQARTTEGFGPEREGIITIES
modifications: MTSL nitroxide spin label on Cys 1497, 1598 and 1608
With B7, the binding entry in assay [7] was “no binding”.

B8: FnIII-3,4 mutant T1472C/C1608/S1626C, labelled with MTSL (domain or fragment, UniProt P16144-2 1457-1666)
chain: GSHMVPDTPTRLVFSALGPCSLRVSWQEPRSERPLQGYSVEYQLLNGGELHRLNIPNPAQTSVVVEDLLPNHSYVFRVRAQSQEGWGREREGVITIESQVHPQSPLAPLPGSAFTLSTPSAPGPLVFTALSPDSLQLSWERPRRPNGDIVGYLVTCEMAQGGGPATAFRVDGDCPESRLTVPGLSENVPYKFKVQARTTEGFGPEREGIITIES
modifications: MTSL nitroxide spin label on Cys 1472, 1608 and 1626
Consider B8, for which the binding entry in [8] is “no binding”.

B9: FnIII-3,4 mutant R1504C/N1598C/C1608, labelled with MTSL (domain or fragment, UniProt P16144-2 1457-1666)
chain: GSHMVPDTPTRLVFSALGPTSLRVSWQEPRSERPLQGYSVEYQLLNGGELHCLNIPNPAQTSVVVEDLLPNHSYVFRVRAQSQEGWGREREGVITIESQVHPQSPLAPLPGSAFTLSTPSAPGPLVFTALSPDSLQLSWERPRRPCGDIVGYLVTCEMAQGGGPATAFRVDGDSPESRLTVPGLSENVPYKFKVQARTTEGFGPEREGIITIES
modifications: MTSL nitroxide spin label on Cys 1504, 1598 and 1608
With B9, in assay [9], the binding entry is “no binding”.

The values are drawn from PMC4388270.
